Results: the supplement of paper PMC10689618
The other results are listed elsewhere or left out. Many values rest on one well or one pass, so single values are uncertain.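 Primary human fetal astrocytes engulfed labelled rat cortical synaptosomes, measured as a red/green ratio corrected for calcein live-cell signal and scaled to the plate median. Toxicity meant calcein falling over 30%; decreased phagocytosis meant below 70% of median above 5 µM.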

system: Human fetal astrocytes; assay: loss of total cells relative to no-compound high-control median (toxicity); higher = more toxic (fewer cells); settings: 11.11 µM; 24 h

SMILES | loss of total cells [%]
C[C@@H]1C[C@H]2[C@@H]3C[C@H](F)C4=CC(=O)C=C[C@]4(C)[C@@]3(F)[C@@H](O)C[C@]2(C)[C@@]1(O)C(=O)CO | -8.6
Nc1[nH]cnc2ncnc1-2 | -0.3
COc1ccc2c(c1)OC[C@@H](Cc1ccc(OC)c(OC)c1)[C@H]2O | 9.6
O=C1N=C(O)NC1(c1ccccc1)c1ccccc1 | 13.3
CC[C@H](C)C(=O)O[C@H]1C[C@H](O)C=C2C=C[C@H](C)[C@H](CC[C@@H](O)C[C@@H](O)CC(=O)O)[C@H]21 | -23.4
CO/N=C(\C(=O)N[C@@H]1C(=O)N2C(C(=O)O)=C(COC(C)=O)CS[C@H]12)c1csc(N)n1 | -20.3
CC1(C)[C@@H](O)CC[C@]2(C)[C@H]3C(=O)C=C4[C@@H]5C[C@@](C)(C(=O)O)CC[C@]5(C)CC[C@@]4(C)[C@]3(C)CC[C@@H]12 | 3.8
Nc1c2ccccc2nc2ccccc12 | 27.4
O=C(CCBr)N1CCN(C(=O)CCBr)CC1 | 29.2
CCC(CCC(C)C1CCC2C3CCC4CC(O)CCC4(C)C3CCC12C)C(C)C (stereo not given) | 16.2
OCC(S)CS (stereo not given) | 49.7
O=C(O)CCCC[C@@H]1SC[C@@H]2NC(=O)N[C@@H]21 | -0.3
CC(=O)c1cc2ccccc2oc1=O | 9.6
CCCCCC(=O)O[C@]1(C(C)=O)CC[C@H]2[C@@H]3CCC4=CC(=O)CC[C@]4(C)[C@H]3CC[C@@]21C | 13.5
CNCc1ccccc1 | 10.8
C[C@H](CCC(=O)O)[C@H]1CC[C@H]2[C@@H]3[C@@H](O)C[C@@H]4C[C@H](O)CC[C@]4(C)[C@H]3CC[C@]12C | 14.7
CCCCCCCCCCCCC[N+](C)(C)Cc1ccccc1 | 25.9
CCOC(=O)[C@H](CCc1ccccc1)N[C@@H](C)C(=O)N1Cc2ccccc2C[C@H]1C(=O)O | -1

8 consecutive entries from above:
SMILES | loss of total cells [%]
Nc1c2ccccc2nc2ccccc12 | 27.4
O=C(CCBr)N1CCN(C(=O)CCBr)CC1 | 29.2
CCC(CCC(C)C1CCC2C3CCC4CC(O)CCC4(C)C3CCC12C)C(C)C (stereo not given) | 16.2
OCC(S)CS (stereo not given) | 49.7
O=C(O)CCCC[C@@H]1SC[C@@H]2NC(=O)N[C@@H]21 | -0.3
CC(=O)c1cc2ccccc2oc1=O | 9.6
CCCCCC(=O)O[C@]1(C(C)=O)CC[C@H]2[C@@H]3CCC4=CC(=O)CC[C@]4(C)[C@H]3CC[C@@]21C | 13.5
CNCc1ccccc1 | 10.8

(listing goes on)

SMILES | loss of total cells [%]
CN1CCC(=C2c3ccccc3Sc3ccccc32)CC1 | -7.9
CCOC(=O)CCC(=O)O[C@H]1[C@H](O[C@@H]2[C@@H](C)[C@H](O[C@H]3C[C@@](C)(OC)[C@@H](O)[C@H](C)O3)[C@@H](C)C(=O)O[C@H](CC)[C@@](C)(O)[C@H](O)[C@@H](C)C(=O)[C@H](C)C[C@@]2(C)O)O[C@H](C)C[C@@H]1N(C)C | 5.5
Cc1cc(=O)n(-c2ccccc2)n1C | -17.2
NNC(=O)c1ccncc1.Nc1ccc(C(=O)O)c(O)c1 | 23.8
NC(=O)c1ccccc1O | 2.6
O=C(N/N=C/c1ccc([N+](=O)[O-])o1)c1ccc(O)cc1 | 22.2
Clc1ccccc1C(c1ccccc1)(c1ccccc1)n1ccnc1 [Clotrimazole] | -2.6
O=C1CN2Cc3c(ccc(Cl)c3Cl)N=C2N1 | 29.2
CC(C)CCCCC(=O)N[C@@H](CCN)C(=O)N[C@@H](CN[C@@H](CCN)C(=O)N[C@H]1CCNC(=O)[C@H]([C@@H](C)O)NC(=O)[C@H](CCN)NC(=O)[C@H](CCN)NC(=O)[C@H](CC(C)C)NC(=O)[C@@H](CC(C)C)NC(=O)[C@H](CCN)NC1=O)[C@@H](C)O.CCC(C)CCCCC(=O)N[C@@H](CCN)C(=O)N[C@@H](CN[C@@H](CCN)C(=O)N[C@H]1CCNC(=O)[C@H]([C@@H](C)O)NC(=O)[C@H](CCN)NC(=O)[C@H](CCN)NC(=O)[C@H](CC(C)C)NC(=O)[C@@H](CC(C)C)NC(=O)[C@H](CCN)NC1=O)[C@@H](C)O (stereo not given in full) | -11.6
CC(=O)O[C@H]1CC[C@]2(C)[C@H]3CC[C@@]4(C)[C@H](c5ccoc5)OC(=O)[C@H]5O[C@]54[C@]3(C)[C@H](OC(C)=O)C[C@H]2C1(C)C [3beta-ACETOXYDEOXODIHYDROGEDUNIN] | 34.2
C#C[C@]1(OC(C)=O)CC[C@H]2[C@@H]3CCC4=CC(=O)CC[C@@H]4[C@H]3CC[C@@]21C | 6.6
Cc1c(Nc2ncccc2C(=O)O)cccc1C(F)(F)F | 1
CNCCc1ccccn1 | 3.2
COc1cc(C(=O)NCCCCCC(=O)O)cc(OC)c1OC | 14.1
C[C@H]1O[C@@H](O[C@H]2[C@@H](O)C[C@H](O[C@H]3[C@@H](O)C[C@H](O[C@H]4CC[C@@]5(C)[C@H](CC[C@@H]6[C@@H]5CC[C@]5(C)[C@@H](C7=CC(=O)OC7)CC[C@]65O)C4)O[C@@H]3C)O[C@@H]2C)C[C@H](O)[C@@H]1O | 49.9
C=C1C[C@]23C[C@@]1(O)CC[C@H]2[C@@]12C=C[C@H](O)[C@@](C)(C(=O)O1)[C@H]2[C@@H]3C(=O)O | 46.5
COc1cc(-c2cc(=O)c3c(O)c(OC)c(OC)c(OC)c3o2)cc(OC)c1OC | 2.7
